The values below come from PubChem BioAssay AID1508600 (Functional Genomics Laboratory (NCATS/FGL), 2020).

In all, about 53,000 sequences went through this assay and about 3,700 (7%) were called active.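 The calls were made as follows: active = gene knockdowns whose robust z-score for IL-1 alpha signal is at least 2 or at most -2, so actives lie on both sides; inactive = the rest.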 Some of the results follow.

The test in a line: Components of the Cytosolic LPS Sensing Pathway: Gene Identification via Genome-wide siRNA Screen.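 Also: robust z of the log signal after scaling to non-targeting control siRNA wells of the plate.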 The conditions noted are these: RAW264.7 macrophages, IL-1a HTRF, actives lie on both sides, screened at 100 nM (by protocol), cells primed 5 h with Pam3CSK4 first. In outline: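 Knockdown: 100 nM siRNA, 48h, RAW264.7. Stimulation: Pam3CSK4 5 h, then LipidA via TransIT-TKO 24 h. Output: supernatant IL-1a HTRF, negative-control-normalized, log robust z-score; viability by CellTiter-Glo.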
Background: Time-resolved FRET reads energy transfer from a long-lived donor to a nearby acceptor.
As to GGACUUCACAAAGAGCUUUTT against Ogfod1, the z-score was inactive: -0.606. Turning to GGAGGAGAAGAAGAAGGCCTT against Unc119b, the z-score was inactive: 0.28.

Take GGAGUUCUUUACAUUGGACTT against Olfr554: the z-score is inactive: 0.324. To CCCAAGUGGCAUCUAUUCATT against Capn3 belongs inactive: -0.563. To GGACUCUGUCUCCAUCUAATT against Map7 belongs inactive: 1.38; to GGUUGGACAGUAAGAUUCATT against Ubxn7, inactive: 1.23. As for GCUCUUUUAACGUAAUGGGTT against Cpe, the figure is inactive: -1.02.

Regarding CCAAUGUUGGCAUUAUGUUTT against Fah, the z-score is inactive: -0.354. As for GGUGGAUACAGUGUACACUTT against Cldn13, the figure is inactive: 0.207. As for GGAGCAUGAGUAUUACAAUTT against Pi16, the figure is inactive: 0.969; as for GGAGAAGAUUGUAAAGGGCTT against Lig3, inactive: 0.211; as for CCAUAGCUCUGGAAUGGUGTT against Kcnt1, active: -2.59. On to GGUUAGAGGGAGAAGUGAATT against Polr2m, for which the z-score is inactive: -0.807. With GUAGAAGAUGGAAUUUUUGTT against Rpl22l1, the z-score is inactive: 0.048. Consider GGAUUCAGAAGGCCUCAGUTT against Olfr399, for which the z-score was inactive: 0.132.

For the sequence GGUUCUGAGUCUUAUCUUCTT against Sult5a1, the z-score was inactive: 0.542. In the case of GGUUCAAGGGCCAGAUCCUTT against Rpl32, the z-score is inactive: 0.887. As for GCUCAACUUGGAAUUGGAGTT against Arhgap29, the figure is active: 2.28; as for CCUGGAGUUAGUUUGACAGTT against Atf4, inactive: -0.042. In the case of GGCAAACUUAUCUUCUUCUTT against Ahsa1, the z-score is inactive: -1.89. To GGCAAGAUCCUAGCAUCCGTT against Rad54l2 belongs inactive: 0.00343; to CGGGUGCUAAAAUGUCUAUTT against Khdrbs2, active: 2.81; to GGAGUCAGACUGAUGUCAUTT against Cdipt, inactive: 0.327. As for GCUUCGAAGCAACAUCCGATT against Rims3, the z-score is inactive: -0.00729. Take GGAGUUUCCACAAGACCUGTT against Csrp3: the z-score was inactive: -0.153.

For the sequence GGCCGUGUACAACAACUUCTT against Tshz3, the z-score was inactive: 0.254. On to GCAGCCGAUUAUCAGCGAATT against Cyp7b1, for which the z-score is inactive: 0.649.

On to GCGACACCUUUUUUUGGGATT against Ppp1r3c, for which the z-score is inactive: -0.78. On to GCUCGAGCUUUAUUUAAAUTT against Adarb1, for which the z-score was inactive: 0.302. On to CCAAUUAUCACUUUAGACUTT against Zfp652, for which the z-score is inactive: 0.118. To CCGCAUCCUAAGUUUUAAATT against Gm4827 belongs inactive: -0.958. As for GCGACUGUUCGGUGGUACATT against Tmem191c, the figure is inactive: 0.00701. As for GGUGUCAGUGAAGGCGAAATT against H1f1, the figure is inactive: 0.354; as for CGAAGGAGAUUCCGAUAAATT against Arl5c, inactive: 1.55; as for GGCCAAGAAUGAUCGUUCUTT against Gabrb3, inactive: 0.00587. Consider GCUAAUCGAAGUUGAAAUUTT against Soga3, for which the z-score is inactive: -0.316.

On to CCAAUACCUGCAAGACCUGTT against Ddx49, for which the z-score is inactive: 0.458. Turning to GGAGGAAAGUAUGAAGAAATT against Cyp2j9, the z-score was inactive: -0.337. To CCCGGAAAAUUGUAUUGGATT against Klhl6 belongs inactive: 0.42; to GCUUCCUAACUUGAAAGCATT against Etos1, inactive: -0.33; to GGAGAUUGACAUUAGCAACTT against Rps6ka2, active: 3.02.

In the case of GCCAAAAUUUCUCUAGCAUTT against Olfr1445, the z-score is inactive: -0.247. Regarding CCGUUUAUGACAAUGGCGUTT against Tub, the z-score is inactive: -0.249.

Regarding GGGACGAGAUUGAAGAAGATT against Snx2, the z-score was inactive: -0.104. As for GCCCGAGGCAUUGAAUUUGTT against Tmem147, the z-score was inactive: 1.5. As for GGCCUCAAGAACUUUUUGCTT against Cntrob, the z-score was inactive: -0.339. To CGACACUCCGAUCGUCAAGTT against Grm4 belongs inactive: -1.07. Take GGCUUAAAGGUCCUGUGCUTT against Ighmbp2: the z-score is active: -2.89. To GCACUCACACAUUAAGAGATT against Tmem79 belongs inactive: -0.355; to GCUAGAGCUCACCAAAUAATT against Fam83a, inactive: 0.759. To GGAGAGCAAGGAGAACCAATT against Itga7 belongs inactive: 1.35.

As to CCUAUAUGACAAAAGACAGTT against Glra2, the z-score is inactive: -0.168. For CCUGAGACCGAAUUUUACCTT against Cer1, the z-score is inactive: -0.209. As for GGAUCCUGUGGCUAAAGAGTT against Zc3h12a, the figure is inactive: -0.606; as for CCAGCCAUAUCAACCGUAUTT against Lzts3, inactive: 0.084; as for GGAUUUGACCAGUAUAAGUTT against Ptgs2, inactive: -1.05.

On to GCCAUGUUUCUACUGAUAGTT against Fam24b, for which the z-score was inactive: 1.15. As to GGAAAAUCUGGAGUUCUUCTT against Npas1, the z-score was inactive: 1.3. GCCCAAAAAGGAAUUAAUUTT against Pak3: the z-score was inactive: -0.176.

For GCCCAUAUGAUCACAGUCGTT against Ptpn2, the z-score is inactive: -1.32. To GGAAUCUCCAUUUGUAUUGTT against Calml3 belongs inactive: 0.0364; to GGAUCACUUGAUUGAUCCUTT against Slc15a3, inactive: -0.292; to GCAAACUGCGCAGUUCUUGTT against Gad1, inactive: 1.33. To GGAAAAUGGAGAACUAAAGTT against Uxs1 belongs inactive: 1.88; to CGAUGAUACAGUUUAUCUCTT against Pon2, inactive: -0.766; to GGAUGAGGAUUUUGAGAACTT against Arhgef1, inactive: 0.132. As for GCCUGAACAGCCUUGAAUUTT against Hhatl, the figure is inactive: 0.702; as for GCCAGUGUGACAUUUGGUATT against Eed, inactive: 0.651; as for GGAGCAUCCUGGCAAACAGTT against Slc51b, inactive: -1.32. Regarding GUGCACGAUCUGAUUGGUGTT against Pfn3, the z-score was inactive: -0.744. As for GGAGAAAAAGCACCAAUGUTT against Plag1, the figure is inactive: 0.821; as for GGUUUCAUCUGUUGGAAUUTT against Meis1, inactive: 0.5. To GCACCUAACAAGUACUAAATT against Mob4 belongs inactive: 1.14.

As for GGCAGCAGCAACAGCAGAATT against Slc36a3, the z-score is inactive: -0.678. As for GCAAAUUCCAGUGAAAGCCTT against Papola, the figure is inactive: 1.12; as for GGAUUUUGAAGAGGAGUCGTT against Mpp3, inactive: -1.23.

Turning to GGAAUUCAUCCACAUACUGTT against Actr10, the z-score is inactive: 1.08. For the sequence GGAUGUAUUUUGGAGAACGTT against Fam241a, the z-score is inactive: 0.158. As for “GGUGAAGGCCUCCAUAUAUTT against 9330175E14Rik”, the z-score is inactive: 1.07. Consider GGCUUCGACGUGACUCAUCTT against Tcte2, for which the z-score was inactive: -0.906.

Regarding GGGAAAACACAAAGAAGAATT against Angpt1, the z-score was inactive: 0.307. As for GGAGCUCCUUAUGAAACUGTT against Tsfm, the z-score was inactive: -0.375. As for CGAGAAUUUUACAUGAGAGTT against Mthfd1l, the z-score was inactive: -0.632.

As for GUCAAGCUGGCCAAACAUATT against Rps19, the z-score was inactive: -0.437. To CCUCUACAUAUUAUGGAAATT against Dpp9 belongs inactive: 0.0926; to CCAAUAUGAGACCAUCAUUTT against Sv2b, inactive: 0.385. To GGAAGCACGUUGGAAGGAUTT against Olfr845 belongs inactive: 0.461; to GCAGGUUUGUAUUGUAACUTT against Abi1, inactive: -0.302. To GGAAUGCCGGAUUGCUCACTT against Fam76a belongs inactive: 1.2; to GGCCAUGUUCCACACAUUATT against Grm1, inactive: 1.49.

In the case of CCACAUCCCACGGGAUCUUTT against Fam178b, the z-score is inactive: 0.122. To GGAAUCACAAGGUAUUUUCTT against Spo11 belongs inactive: -0.237; to CGAAUUUACAAAGAACUUGTT against Cldn34b3, inactive: -0.487. Consider CGCACCUUUCUUUGGAAUGTT against Rab1b, for which the z-score was inactive: 1.72.

As for GGCCAAACAGCCAAAUUCUTT against Rps23, the z-score was inactive: 0.402. For GACAAGAAGCAGAUGACUGTT against Olig2, the z-score was inactive: -0.142.

With GGAAUGAUUUUUGUUUGCUTT against Sf3b3, the z-score was inactive: -1.6.

For GGAAGCUGUGGAGAAACUATT against Acox2, the z-score is active: 2.22. As for CCUGAAAAAAUUUAUCGCCTT against Pcgf3, the figure is inactive: -0.363; as for GGUGCUGGAGUUGACCAGUTT against Cebpa, inactive: -0.0905. As for GCGUAAAUAAGUGUCAGAATT against Emp2, the figure is inactive: 0.295; as for GCAGAUGUGGCAUCUUCCATT against Arhgap35, inactive: -0.642. With GGCAUAGCUGGUCUGAAGATT against Slc3a2, the z-score was active: 2.06. In the case of GGCUAUGGAGUUCACCACATT against Krtap5-5, the z-score is active: -2.66. As for GCCAGGUCCUCAAAUGAAATT against Vps37d, the z-score was inactive: 0.0635.

As to GCUACAAAUGUGUACCCUUTT against Il34, the z-score is inactive: -1.05. In the case of GGAAGAGGACACAUUAGGCTT against Gtsf1l, the z-score was inactive: 0.11.
